For 60 sequences, binding signal results are on record in paper PMC7862700.

Sequences of proteins named here, by UniProt entry; tags and fusion partners are left off. A change or cut given only in a name is not applied to a line headed by its entry.
UniProt Q9Y603: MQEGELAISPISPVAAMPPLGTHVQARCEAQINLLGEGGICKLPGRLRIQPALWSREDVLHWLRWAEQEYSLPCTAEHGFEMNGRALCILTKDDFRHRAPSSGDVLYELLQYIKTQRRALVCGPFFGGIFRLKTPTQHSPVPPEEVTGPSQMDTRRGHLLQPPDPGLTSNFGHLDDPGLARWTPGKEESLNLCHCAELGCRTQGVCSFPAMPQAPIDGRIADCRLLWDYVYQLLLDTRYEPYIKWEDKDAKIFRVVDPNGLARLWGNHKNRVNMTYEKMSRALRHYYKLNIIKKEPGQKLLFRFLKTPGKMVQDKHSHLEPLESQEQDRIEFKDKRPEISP
UniProt P41212: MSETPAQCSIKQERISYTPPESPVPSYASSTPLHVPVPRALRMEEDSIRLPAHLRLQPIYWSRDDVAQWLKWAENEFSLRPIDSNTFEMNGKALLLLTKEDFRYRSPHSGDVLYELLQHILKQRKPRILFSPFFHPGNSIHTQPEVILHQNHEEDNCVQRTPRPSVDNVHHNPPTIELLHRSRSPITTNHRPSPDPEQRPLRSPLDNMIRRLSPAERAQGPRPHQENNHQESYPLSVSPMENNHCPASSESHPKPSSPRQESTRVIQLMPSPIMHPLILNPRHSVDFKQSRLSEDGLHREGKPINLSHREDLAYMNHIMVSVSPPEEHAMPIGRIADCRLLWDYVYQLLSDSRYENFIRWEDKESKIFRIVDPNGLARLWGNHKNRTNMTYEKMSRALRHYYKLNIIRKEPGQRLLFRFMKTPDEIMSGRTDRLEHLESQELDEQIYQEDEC

The list shows a part of the results, in another mix than the full data. At the low end of the ranking, values are background and their order means little.

What all share (assay): DAPPL (digital affinity profiling via proximity ligation, sequencing)
What all share (details): 10 mM Tris-HCl pH 7.5, 50 mM NaCl, 1 mM DTT, 4% glycerol, room temperature, 30 min; GST-TFs on glutathione beads, 16-mer random dsDNA library, 0.1% …; high values mean tight binding; double strand, one strand shown; scale: fold enrichment (6-mer frequency, TF over GST control)

For assay [1], the target named is T1, ELF3 (UniProt P78545).
T1 sequence: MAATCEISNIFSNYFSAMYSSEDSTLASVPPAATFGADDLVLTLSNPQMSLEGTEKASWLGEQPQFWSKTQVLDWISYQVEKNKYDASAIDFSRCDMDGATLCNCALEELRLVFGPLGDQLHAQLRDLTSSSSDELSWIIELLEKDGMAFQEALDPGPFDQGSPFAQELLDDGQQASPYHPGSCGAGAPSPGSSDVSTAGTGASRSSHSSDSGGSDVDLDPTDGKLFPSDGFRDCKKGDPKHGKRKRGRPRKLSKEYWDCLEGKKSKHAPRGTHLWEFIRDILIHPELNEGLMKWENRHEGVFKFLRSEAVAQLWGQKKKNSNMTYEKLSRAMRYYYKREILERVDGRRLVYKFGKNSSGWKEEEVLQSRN

Assay [2] concerns the target ETV7 (UniProt Q9Y603).
Assay [3] deals with ETV6 (UniProt P41212).

Turning to TGAGCA, the binding signal in assay [1] amounted to 0.906; in assay [2] it was 0.851; in assay [3], 0.881.
The matching figures for CAGTTG: 0.449, 0.504 and 0.496.
For CGAGTG, the binding signal in assay [1] turned out to be 0.768; in assay [2], 0.775; in assay [3], 0.861.
As to ATCGTG, the binding signal in assay [1] was 0.426; in assay [2], 0.426; in assay [3], 0.4.
Take GCACCG: the figures for the binding signal in assay [1], in assay [2] and in assay [3] were 0.823, 0.652 and 0.716, respectively.
Regarding GCATAA, the results for the binding signal in assay [1], in assay [2] and in assay [3] were 0.917, 0.851 and 0.86, respectively.
Consider CAGTCC, for which the binding signal in assay [1] stood at 0.625; in assay [2], 0.671; in assay [3] it was 0.578.
GCGTGG: the figures for the binding signal in assay [1], in assay [2] and in assay [3] were 0.408, 0.576 and 0.544, respectively.
Turning to TAGTGA, the binding signal in assay [1] was found to be 0.557; in assay [2], 0.682; in assay [3], 0.531.
For the sequence GACAGC, the binding signal in assay [1] was 0.86; in assay [2], 0.859; in assay [3], 0.758.
Turning to AGGTGC, the figures for the binding signal in assay [1], in assay [2] and in assay [3] were 0.656, 0.707 and 0.626, respectively.
Regarding GACGAT, the binding signal in assay [1] amounted to 0.812; in assay [2], 1; in assay [3], 0.885.
For the sequence ATGTGA, the binding signal in assay [1] came to 0.704; in assay [2] it was 0.727; in assay [3], 0.646.
In the case of CCAGCG, the figures for the binding signal in assay [1], in assay [2] and in assay [3] were 0.502, 0.714 and 0.609, respectively.
On the same counts, the results for ACGGAC are 0.893, 0.928 and 0.86.
On the same counts, the results for CAGTTT are 0.851, 0.907 and 0.922.
The matching figures for ATCAGG: 0.815, 0.878 and 0.911.
Take CGTGAG: the binding signal in assay [1] was 0.125; in assay [2], 0.173; in assay [3], 0.125.
CGCATC: the binding signal in assay [1] was 0.897; in assay [2], 0.818; in assay [3] it was 0.861.
As to AGGACG, the values for the binding signal in assay [1], in assay [2] and in assay [3] were 0.457, 0.463 and 0.496, respectively.
Consider TCGTAA, for which the binding signal in assay [1] worked out at 0.968; in assay [2] it was 0.898; in assay [3], 0.936.
Take GCTGTC: the binding signal was determined as 0.901 in assay [1], 0.942 in assay [2] and 0.775 in assay [3].
Consider GAGCAG, for which the binding signal was 0.627 in assay [1], 0.622 in assay [2] and 0.646 in assay [3].
As for GACCAC, the binding signal was 0.83 in assay [1], 0.751 in assay [2] and 0.914 in assay [3].
In the case of GGAGCT, the binding signal in assay [1] is 0.638; in assay [2], 0.641; in assay [3], 0.586.
Turning to GCGCAT, the binding signal in assay [1] was 0.788; in assay [2], 0.873; in assay [3] it was 0.857.
On the same counts, the results for GCCACG are 0.994, 1.03 and 0.864.
The matching figures for GACGAG: 0.456, 0.49 and 0.51.
Consider AGGTTA, for which the values for the binding signal in assay [1], in assay [2] and in assay [3] were 0.871, 0.823 and 0.802, respectively.
On to CGGGAA, for which the results for the binding signal in assay [1], in assay [2] and in assay [3] were 0.79, 0.762 and 0.842, respectively.
As for CGCCGT, the binding signal in assay [1] stood at 0.92; in assay [2], 0.842; in assay [3], 0.976.
For the sequence CTCGGA, the binding signal in assay [1] stood at 0.905; in assay [2] it was 0.774; in assay [3], 0.844.
As to TCGGTT, the binding signal in assay [1] came out at 0.825; in assay [2], 0.857; in assay [3], 0.949.
On to CGCTGA, for which the binding signal was found to be 0.795 in assay [1], 0.978 in assay [2] and 0.764 in assay [3].
For GCATGT, the binding signal in assay [1] was 0.771; in assay [2], 0.806; in assay [3] it was 0.785.
Regarding AGTGAA, the binding signal in assay [1] was 0.881; in assay [2] it was 0.976; in assay [3] it was 0.924.
Regarding ATGTCG, the binding signal was 0.701 in assay [1], 0.623 in assay [2] and 0.544 in assay [3].
On to AGTCCG, for which the binding signal in assay [1] was 0.593; in assay [2], 0.529; in assay [3], 0.593.
With GGCGAG, the binding signal amounted to 0.48 in assay [1], 0.593 in assay [2] and 0.515 in assay [3].
With GTGATC, the binding signal in assay [1] is 0.846; in assay [2] it was 0.793; in assay [3], 0.793.
For GAGAAC, the binding signal in assay [1] turned out to be 0.407; in assay [2], 0.458; in assay [3], 0.375.
As to GGCCCG, the binding signal in assay [1] turned out to be 0.811; in assay [2], 0.797; in assay [3], 0.793.
On the same counts, the results for CCGAGG are 0.803, 0.788 and 0.745.
In the case of CGGAAT, the results for the binding signal in assay [1], in assay [2] and in assay [3] were 0.961, 0.876 and 1.01, respectively.
The matching figures for GTGGGA: 0.551, 0.567 and 0.624.
As to CGAGAC, the binding signal in assay [1] is 0.592; in assay [2], 0.638; in assay [3], 0.579.
With CCAGGG, the binding signal in assay [1] stood at 0.684; in assay [2], 0.634; in assay [3], 0.607.
As for CAACGT, the binding signal in assay [1] stood at 0.689; in assay [2], 0.819; in assay [3], 0.908.
For the sequence AGCGAG, the binding signal in assay [1] worked out at 0.626; in assay [2] it was 0.741; in assay [3] it was 0.632.
On to CAGTAG, for which the binding signal in assay [1] was determined as 0.605; in assay [2] it was 0.583; in assay [3], 0.629.
On the same counts, the results for GGGATC are 0.551, 0.616 and 0.633.
For GTCGTC, the binding signal is 0.831 in assay [1], 0.764 in assay [2] and 0.825 in assay [3].
The matching figures for GTGGAC: 0.891, 0.929 and 0.916.
GGCATG: the binding signal turned out to be 0.904 in assay [1], 0.878 in assay [2] and 0.803 in assay [3].
As for AGGTTG, the binding signal in assay [1] turned out to be 0.824; in assay [2] it was 0.808; in assay [3], 0.733.
As to CCGAGA, the binding signal came to 0.554 in assay [1], 0.684 in assay [2] and 0.599 in assay [3].
On to GTGTCA, for which the binding signal in assay [1] came out at 0.869; in assay [2], 0.915; in assay [3], 0.857.
With GGCGGT, the figures for the binding signal in assay [1], in assay [2] and in assay [3] were 0.42, 0.443 and 0.417, respectively.
The matching figures for CAGTGT: 0.749, 0.781 and 0.645.
Take CGTGTT: the binding signal in assay [1] is 0.815; in assay [2], 0.852; in assay [3], 0.78.
